Some of the results follow. These are further read-outs of the screen, such as a control signal, another cell line or another target. No call is given for them. Compounds called inactive in the main read-out are mostly missing here. Potencies come from curve fits of mixed quality, noted in brackets.

This assay is described as follows: qHTS Assay for Modulators of Lamin A Splicing. The settings on record: HeLa LMNA splicing GFP/RFP minigene ratio, 48 h. In a few lines: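 Read-out is the ratio of GFP to DsRed2 object intensity, acquired by 488 nm laser-scanning cytometry on HeLa lamin A-EGFP minigene reporter cells. Compound incubation 48 hrs at 37 °C in Opti-MEM with 2% FBS; DMSO 0.5% final.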
Background: In qHTS, concentration-response curves come from the screen itself.

The mark [1] stands for this setting: measured here: GFP splicing reporter channel.
Setting [2] is: measured here: RFP viability control channel.

A word on the AC50: it is the concentration at which the activity in the assay is half-maximal. As for `COC(=O)[C@H](C)NC(=O)Nc1cc(Cl)ccc1C`, the AC50 under setting [1] was 2.51 µM [falling, full curve] and the AC50 under setting [2] is 2.51 µM [falling, full curve].

As for `CCN(CC)S(=O)(=O)c1cc(C(=O)Nc2cccnc2Cl)ccc1Cl`, the AC50 under setting [2] was 0.0562 µM [falling, partial curve].

As to `COc1ccccc1NC(=O)c1cnc2c(-c3ccccc3)c(C)nn2c1C`, the AC50 is 35.5 µM [falling, partial curve] under setting [1] and 5.01 µM [falling, partial curve, poor fit] under setting [2].

Consider `O=C(/C=C/c1ccccc1)Nc1scc(-c2ccccc2)c1C(=O)O`, for which the half-maximal activity concentration (AC50) is 0.02 µM [falling, full curve, poor fit] under setting [1] and 0.0178 µM [falling, full curve, poor fit] under setting [2].

Regarding `CO/N=C\C(=N\Nc1ccc(OC)cc1)C(=O)c1ccccc1`, the AC50 under setting [2] is 31.6 µM [rising, single point].

On to `N#Cc1cccc(N=Cc2c(O)ccc3ccccc23)c1`, for which the concentration at half-maximal activity (AC50) under setting [2] was 12.6 µM [rising, single point].

As for `CCOc1ccc(CN2CCc3nc(Nc4ccc5c(c4)OCCO5)ncc3C2)cc1`, under setting [1], the AC50 was 35.5 µM [falling, single point].

`CC(NC(=O)C1CCC(C(C)(C)C)CC1)C(c1ccccc1)N1CCOCC1` (stereo not given): the concentration at half-maximal activity (AC50) under setting [1] is 44.7 µM [falling, partial curve, poor fit].

For the molecule `O=c1[nH]c(SCc2ccc(Cl)cc2)nc2c1CCC2`, the AC50 under setting [2] is 14.1 µM [rising, single point].

Take `CCN(CC)c1cc2c(cc1F)c(=O)c(S(=O)(=O)c1cccc(C)c1)cn2C`: the half-maximal activity concentration (AC50) under setting [2] is 20 µM [rising, partial curve].

Consider `CCC1CCCCN1S(=O)(=O)c1ccc(S(=O)(=O)N(Cc2cccs2)C2CC2)cc1` (stereo not given), for which the AC50 under setting [2] was 7.94 µM [rising, partial curve, poor fit].

On to `COc1ccc(NC(=O)c2ccc3c(c2)sc2nc(-c4ccc(OC)cc4)cn23)cc1`, for which the AC50 under setting [2] is 7.08 µM [rising, partial curve].

Take `C1=C(CCNc2ncnc3nc[nH]c23)CCCC1`: the AC50 under setting [1] was 10 µM [rising, partial curve, poor fit] and the half-maximal activity concentration (AC50) under setting [2] was 15.8 µM [rising, partial curve].

Consider `CCN1CCN(CCCNC(=O)c2ccc(/C=C3/Sc4ccccc4N(Cc4ccccc4F)C3=O)cc2)CC1`, for which the AC50 was 35.5 µM [falling, single point] under setting [1] and 35.5 µM [falling, partial curve] under setting [2].

Regarding `Cc1occc(=O)c1O`, the AC50 under setting [2] is 7.94 µM [rising, single point].

As for `Cc1cc(C(=O)Nn2c(C3CCCCC3)nc3ccccc3c2=O)ccc1[N+](=O)[O-]`, the AC50 under setting [1] is 14.1 µM [rising, single point] and the AC50 under setting [2] is 20 µM [rising, single point].

Consider `CCCC(c1nnnn1CC1CCCO1)N1CCN(c2cc(Cl)ccc2C)CC1` (stereo not given), for which the concentration at half-maximal activity (AC50) is 28.2 µM [rising, single point] under setting [1] and 35.5 µM [rising, partial curve] under setting [2].

Regarding `COc1cccc(NS(=O)(=O)c2ccc3c(c2)CCCN3C(C)=O)c1`, the half-maximal activity concentration (AC50) is, setting by setting: under setting [1], 35.5 µM [rising, single point]; under setting [2], 35.5 µM [rising, single point].

Regarding `COc1cc2c(cc1OC)CN(c1nc(CN3CCCCC3)nc3sc4c(c13)CCCC4)CC2`, the AC50 under setting [1] was 7.08 µM [rising, partial curve, poor fit] and the AC50 under setting [2] is 14.1 µM [rising, partial curve, poor fit].

As to `CC(=O)Nc1ccc(N(CC(O)Cn2c3ccccc3c3ccccc32)S(=O)(=O)c2ccc(C)cc2)cc1` (stereo not given), the AC50 under setting [2] was 35.5 µM [rising, single point].

Turning to `CCOC(=O)c1ccccc1NC(=O)CSc1nnnn1C1CCCCC1`, the AC50 under setting [2] was 10 µM [rising, single point].

Consider `CC1(C)SC2C(N3C(=O)C(c4ccccc4)NC3(C)C)C(=O)N2C1C(=O)O` (stereo not given), for which the half-maximal activity concentration (AC50) under setting [1] was 0.00447 µM [falling, full curve, poor fit].

For `CCCCn1nc(C(=O)Nc2nc3c(s2)CCCC3)c2ccccc2c1=O`, the half-maximal activity concentration (AC50) was 6.31 µM [rising, full curve, poor fit] under setting [1] and 10 µM [rising, partial curve] under setting [2].

As to `[O]=[Bi][O]C(=O)[O][Bi]=[O]`, the AC50 under setting [1] is 35.5 µM [falling, single point].

For `CN(C)C(/C=C/Nc1ccc([N+](=O)[O-])cc1)=C(C#N)C#N`, the half-maximal activity concentration (AC50) under setting [1] was 0.0708 µM [falling, full curve, poor fit] and the AC50 under setting [2] was 0.0141 µM [falling, full curve, poor fit].

For the molecule `COc1cccc(C(=O)NCC(c2ccc3c(c2)OCO3)N2CCOCC2)c1` (stereo not given), the AC50 under setting [1] was 0.0224 µM [rising, full curve, poor fit].

As to `Cc1ccccc1OCCCCc1c(C)n[nH]c1C`, the half-maximal activity concentration (AC50) under setting [2] was 5.62 µM [rising, full curve].

In the case of `O=C(OCc1cccc([N+](=O)[O-])c1)c1cc(=O)[nH]c2ccccc12`, the AC50 was 0.00447 µM [rising, full curve, poor fit] under setting [1] and 0.0141 µM [rising, full curve, poor fit] under setting [2].

With `N#Cc1cc(Br)ccc1N=C1CCCN1c1ccccc1`, the concentration at half-maximal activity (AC50) under setting [1] was 15.8 µM [rising, single point] and the AC50 under setting [2] was 20 µM [rising, single point].

`CCCCCCC(=O)NNC(=O)c1c(O)c2ccccc2n(CC)c1=O`: the half-maximal activity concentration (AC50) is 35.5 µM [rising, single point] under setting [1] and 31.6 µM [rising, single point] under setting [2].

As for `S=C(NCC1CCCO1)N1CCN(c2nc(-c3ccccc3)cs2)CC1` (stereo not given), the AC50 under setting [1] is 10 µM [falling, partial curve, poor fit] and the half-maximal activity concentration (AC50) under setting [2] was 15.8 µM [falling, partial curve, poor fit].

As to `C[N+](C)(CCCCCC[N+](C)(C)CCCN1C(=O)c2cccc3cccc(c23)C1=O)CCCN1C(=O)c2cccc3cccc(c23)C1=O`, the AC50 under setting [1] was 0.00316 µM [falling, full curve, poor fit].

Consider `CC(C)C1CC(CCN2CCCCC2)(c2ccccc2)CCO1` (stereo not given), for which the AC50 under setting [2] was 0.0562 µM [falling, full curve].

As to `CN1CCN(C(=O)c2ccc3c(=O)n(Cc4ccc(Cl)cc4)c(=S)[nH]c3c2)CC1`, the AC50 under setting [1] is 17.8 µM [rising, single point] and the AC50 under setting [2] was 35.5 µM [rising, single point].
